What follows are compounds tested on T1, CGTase from Amphibacillus sp. NPST-10 (assay: cyclization assay, phenolphthalein colorimetry). Conditions: 1% starch, 50 mM Tris-HCl pH 8, 50 °C; reaction product.
T1 construct: gene cgt; native extracellular enzyme purified from culture supernatant (corn starch adsorption, DEAE-cellulose); 92 kDa by SDS-PAGE; monomer
Format: biochemical
Text: cyclization assay, phenolphthalein colorimetry on CGTase from Amphibacillus sp. NPST-10

Row | SMILES | Residual Activity (%) / 1 mM [%]
1 | OC[C@H]1O[C@@H]2O[C@H]3[C@H](O)[C@@H](O)[C@@H](O[C@H]4[C@H](O)[C@@H](O)[C@@H](O[C@H]5[C@H](O)[C@@H](O)[C@@H](O[C@H]6[C@H](O)[C@@H](O)[C@@H](O[C@H]7[C@H](O)[C@@H](O)[C@@H](O[C@H]1[C@H](O)[C@H]2O)O[C@@H]7CO)O[C@@H]6CO)O[C@@H]5CO)O[C@@H]4CO)O[C@@H]3CO [α-CD] | 68.7 ± 2.3
2 | OC[C@H]1O[C@@H]2O[C@H]3[C@H](O)[C@@H](O)[C@@H](O[C@H]4[C@H](O)[C@@H](O)[C@@H](O[C@H]5[C@H](O)[C@@H](O)[C@@H](O[C@H]6[C@H](O)[C@@H](O)[C@@H](O[C@H]7[C@H](O)[C@@H](O)[C@@H](O[C@H]8[C@H](O)[C@@H](O)[C@@H](O[C@H]1[C@H](O)[C@H]2O)O[C@@H]8CO)O[C@@H]7CO)O[C@@H]6CO)O[C@@H]5CO)O[C@@H]4CO)O[C@@H]3CO [β-CD] | 45.7 ± 2.2
3 | OC[C@H]1O[C@@H]2O[C@H]3[C@H](O)[C@@H](O)[C@@H](O[C@H]4[C@H](O)[C@@H](O)[C@@H](O[C@H]5[C@H](O)[C@@H](O)[C@@H](O[C@H]6[C@H](O)[C@@H](O)[C@@H](O[C@H]7[C@H](O)[C@@H](O)[C@@H](O[C@H]8[C@H](O)[C@@H](O)[C@@H](O[C@H]9[C@H](O)[C@@H](O)[C@@H](O[C@H]1[C@H](O)[C@H]2O)O[C@@H]9CO)O[C@@H]8CO)O[C@@H]7CO)O[C@@H]6CO)O[C@@H]5CO)O[C@@H]4CO)O[C@@H]3CO [γ-CD] | 54.2 ± 1.8

Reference: PMC3431874, “A Novel Cyclodextrin Glycosyltransferase from Alkaliphilic Amphibacillus sp. NPST-10: Purification and Properties” (International Journal of Molecular Sciences, 2012)
